Laboratory results reported in the supplement of paper PMC7877785.
± gives the uncertainty stated by the source. Many of these values have a large error.

Test: self-splicing fitness, log relative to wild type (ln ratio); higher = more splicing; Tetrahymena group I intron in knt gene, E. coli kanamycin selection, DiMSum; sequences stand for … in CUCUCU…GGAGGGAAAAGUUAUCAGGCAUGCACCUGGUAGCUAGUCUUUAAACCAAUAGAUUGCAUCGGUUUAAAAGGCAAGACCGUCAAAUUGCGGGAAAGGGGUCAACAGCCGUUCAGUACCAAGUCUCAGGGGAAACUUUGAGAUGGCCUUGCAAAGGGUAUGGUAAUAAGCUGACGGACAUGGUCCUAACCACGCAGCCAAGUCCUAAGUCAACAGAUCUUCUGUUGAUAUGGAUGCAGUUCACAGACUAAAUGUCGGUCGGGGAAGAUGUAUUCUUCUCAUAAGAUAUAGUCGGACCUCUCCUUAAUGGGAGCUAGCGGAUGAAGUGAUGCAACACUGGAGCCGCUGGGAACUAAUUUGUAUGCGAAAGUAUAUUGAUUAGUUUUGGAGUACUCGUGGUCG
Procedure, shortened: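 Six replicate transformations of E. coli BL21(DE3) with a pET-22b(+) library were grown overnight at 37°C or 30°C. The library randomised all eight P1ex-region intron nucleotides, the intron lying in the knt kanamycin-resistance gene, and plates were LB agar with or without 25 μg/mL kanamycin plus 100 μg/mL carbenicillin, 50 μM IPTG and 0.2% rhamnose. Pooled colonies were amplicon-sequenced on an Illumina HiSeq 2500, and fitness is the DiMSum error-weighted combination of wild-type-normalised replicate fold changes, kanamycin versus none.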

| Sequence | self-splicing fitness (ln) (30 °C) | self-splicing fitness (ln) (37 °C) |
| --- | --- | --- |
| AGGUAGCAAUAUUACGCAGU | -2.979 ± 0.021 | -1.68 ± 0.035 |
| UCAGAGCAAUAUUACGACGC | -3.7 ± 0.73 |  |
| GGGGAGCAAUAUUACGCAUG | -4.17 ± 1.1 | -3.38 ± 0.73 |
| GUGAAGCAAUAUUACGCCCC |  | -0.534 ± 0.53 |
| CUUUAGCAAUAUUACGGUGC | -1.32 ± 1 | -2.63 ± 1.1 |
| GGAGAGCAAUAUUACGCUGU | -3.8 ± 0.52 | -1.88 ± 0.6 |
| AGUCAGCAAUAUUACGCCGG |  | -0.834 ± 0.67 |
| CUGGAGCAAUAUUACGACCC |  | -0.693 ± 1 |
| GCUUAGCAAUAUUACGUUCU | -1.03 ± 0.095 | 0.0827 ± 0.1 |
| CUGGAGCAAUAUUACGCAGA |  | -3.51 ± 0.52 |
| CUUGAGCAAUAUUACGUUAA | -2.47 ± 0.16 | -2.6 ± 0.22 |
| AUGCAGCAAUAUUACGAAAA | -3.33 ± 0.77 |  |
| UGAGAGCAAUAUUACGUGGC | -4.93 ± 1 | -2.12 ± 0.77 |
| AUGGAGCAAUAUUACGCGGA | -2.73 ± 0.29 | -1.34 ± 0.22 |
| CUGCAGCAAUAUUACGCUCA | -3.88 ± 0.73 |  |
| AGAGAGCAAUAUUACGCUUC | -3.91 ± 0.53 | -1.57 ± 0.6 |
| CGCGAGCAAUAUUACGCCUU |  | -4.64 ± 0.59 |
| UGAGAGCAAUAUUACGCUCU | -2.48 ± 0.78 | -0.373 ± 0.92 |
| ACAGAGCAAUAUUACGUACA | -4.02 ± 0.59 | -2.15 ± 0.56 |
| GAACAGCAAUAUUACGUUGA | -1.47 ± 0.066 | -1.02 ± 0.077 |
| GGGCAGCAAUAUUACGUCCG | -0.61 ± 0.091 | -0.058 ± 0.14 |
| UGGUAGCAAUAUUACGUAAC |  | 0.289 ± 0.6 |
| UAGGAGCAAUAUUACGCUUU | -2.54 ± 0.32 | -1.66 ± 0.29 |

| Sequence | self-splicing fitness (ln) (30 °C) | self-splicing fitness (ln) (37 °C) |
| --- | --- | --- |
| AUGGAGCAAUAUUACGAUCC |  | -1.33 ± 1.2 |
| AUGCAGCAAUAUUACGGAGC | -2.6 ± 0.15 | -2.99 ± 0.18 |
| CGUAAGCAAUAUUACGCCUA | -3.17 ± 0.62 |  |
| AGUUAGCAAUAUUACGCAAA | -3.12 ± 0.52 |  |
| AUGCAGCAAUAUUACGUGGG | -5.24 ± 0.51 |  |
| UAUUAGCAAUAUUACGAUAC | -3.86 ± 0.53 | -1.13 ± 0.24 |
| CAUAAGCAAUAUUACGACCC | -1.28 ± 0.63 | -1.32 ± 0.57 |
| CUGAAGCAAUAUUACGGUGC |  | -2.6 ± 0.62 |
| UGUCAGCAAUAUUACGAGCG | 0.308 ± 0.083 | 0.59 ± 0.11 |
| AUUGAGCAAUAUUACGUUAC | -4.23 ± 1 |  |
| ACGGAGCAAUAUUACGAACC | -2.48 ± 1.1 | 0.224 ± 0.84 |
| UCCCAGCAAUAUUACGACAG | -4.66 ± 0.51 |  |
| GUGGAGCAAUAUUACGAUCC | -2.49 ± 0.2 | -1.13 ± 0.28 |
| GGUUAGCAAUAUUACGGAAG | -2.66 ± 0.8 |  |
| AUGUAGCAAUAUUACGGUGC |  | -3.77 ± 1 |
| CUUAAGCAAUAUUACGAACA | -3.62 ± 0.6 | -2.63 ± 1 |
| CUACAGCAAUAUUACGUUCC |  | -3.57 ± 0.59 |
| CCUGAGCAAUAUUACGGCAG | -2.92 ± 0.34 | -0.802 ± 0.17 |
| UUUUAGCAAUAUUACGCAUU | -2.39 ± 0.11 | -1.27 ± 0.15 |
| CGAGAGCAAUAUUACGCCGC |  | -2.57 ± 0.54 |
| CUGAAGCAAUAUUACGAUCU | -3.3 ± 0.16 | -3.2 ± 0.28 |
| GAGUAGCAAUAUUACGUCCG | -4.08 ± 0.53 | -2.9 ± 0.53 |
| UUGUAGCAAUAUUACGCGAC | -2.82 ± 0.54 |  |

| Sequence | self-splicing fitness (ln) (30 °C) | self-splicing fitness (ln) (37 °C) |
| --- | --- | --- |
| CCACAGCAAUAUUACGCGCG | -1.02 ± 0.042 | -0.161 ± 0.056 |
| GCCCAGCAAUAUUACGCACG |  | -3.28 ± 0.52 |
| UCCGAGCAAUAUUACGAGUU |  | -3.47 ± 0.52 |
| CGAGAGCAAUAUUACGAUUG | -4.54 ± 1 |  |
| GAGCAGCAAUAUUACGUUGG | -0.945 ± 0.19 | -2.43 ± 0.23 |
| GGGGAGCAAUAUUACGGCUC | -3.4 ± 1.1 |  |
| UUAGAGCAAUAUUACGACAC | -0.135 ± 1.2 | -0.693 ± 1.4 |
| GAAGAGCAAUAUUACGAGAA | -2.21 ± 0.79 | -1.67 ± 0.68 |
| ACGGAGCAAUAUUACGUACG |  | -1.1 ± 0.73 |
| GUGGAGCAAUAUUACGCACU |  | -3.23 ± 0.75 |
| CCGCAGCAAUAUUACGAACA |  | -3.02 ± 0.6 |
| UCCUAGCAAUAUUACGAUCC |  | -2.55 ± 0.76 |
| CGCAAGCAAUAUUACGUAGG | -1.24 ± 0.057 | -0.509 ± 0.075 |
| GCAGAGCAAUAUUACGGCUG |  | -2.69 ± 0.62 |
| UCAGAGCAAUAUUACGAAUU | -3.03 ± 0.54 |  |
| UGGAAGCAAUAUUACGUCUC | -3.18 ± 0.62 | -2.47 ± 0.32 |
| CUAAAGCAAUAUUACGCUCU |  | -3.43 ± 1 |
| CUUUAGCAAUAUUACGGAAA | -3.35 ± 1 |  |
| CGGGAGCAAUAUUACGCGAG | -2.61 ± 0.54 |  |
| GCUGAGCAAUAUUACGCCCC | -2.79 ± 1.2 | -1.67 ± 0.53 |
| ACUUAGCAAUAUUACGGUAC | -3.36 ± 0.21 | -3.57 ± 0.42 |
| GUCCAGCAAUAUUACGGGCU |  | -2.86 ± 0.53 |
| AACGAGCAAUAUUACGAUAC | -2.52 ± 0.37 | -1.97 ± 0.46 |

| Sequence | self-splicing fitness (ln) (30 °C) | self-splicing fitness (ln) (37 °C) |
| --- | --- | --- |
| UAGGAGCAAUAUUACGUUGC | -2.47 ± 0.78 | -2.37 ± 0.63 |
| UGGGAGCAAUAUUACGGUUG |  | -3.23 ± 0.53 |
| AUCUAGCAAUAUUACGAGGC | -4.65 ± 0.52 |  |
| CGUGAGCAAUAUUACGAUUU | -4.47 ± 1 | -2.24 ± 0.29 |
| ACCAAGCAAUAUUACGGACG | -1.09 ± 0.069 | -0.0232 ± 0.083 |
| CGCUAGCAAUAUUACGGGAC | -4.76 ± 0.51 |  |
| CCUUAGCAAUAUUACGUACC |  | -2.08 ± 1.1 |
| AUUGAGCAAUAUUACGAUGG | -2.84 ± 0.25 |  |
| UCUGAGCAAUAUUACGAGGU |  | -3.76 ± 0.59 |
| AAUGAGCAAUAUUACGAAUC | -4.61 ± 0.72 |  |
| CCGAAGCAAUAUUACGACGA | -1.44 ± 0.12 | -0.711 ± 0.13 |
| UGUUAGCAAUAUUACGUUAC |  | -2.84 ± 0.61 |
| CAUUAGCAAUAUUACGAAAC | -3.7 ± 0.61 | -1.04 ± 0.51 |
| GGUUAGCAAUAUUACGAGGU | -2.84 ± 0.6 |  |
| ACGCAGCAAUAUUACGUGCU | -3.65 ± 0.18 | -2.9 ± 0.19 |
| AAGGAGCAAUAUUACGACAC |  | -0.132 ± 0.93 |
| CAACAGCAAUAUUACGUAUU | -3.48 ± 0.17 | -1.58 ± 0.11 |
| UCCAAGCAAUAUUACGUAAA | -1.12 ± 0.089 | -0.00199 ± 0.11 |
| CCUGAGCAAUAUUACGUCUC | -4.58 ± 0.72 |  |
| GCAAAGCAAUAUUACGGAUA | -2.49 ± 0.13 | -1.6 ± 0.1 |
| GCUCAGCAAUAUUACGUAUA | -1.73 ± 0.096 | -0.338 ± 0.085 |
| UCAAAGCAAUAUUACGACUU | -4 ± 0.23 | -2.36 ± 0.17 |
| CCGGAGCAAUAUUACGAUCU | -1.74 ± 0.57 | -1.42 ± 0.68 |

Record cards, as listed above.
AAGGAGCAAUAUUACGACAC in the list: self-splicing fitness (ln) (37 °C) = -0.132 ± 0.93
CUAAAGCAAUAUUACGCUCU in the list: self-splicing fitness (ln) (37 °C) = -3.43 ± 1
GCAGAGCAAUAUUACGGCUG in the list: self-splicing fitness (ln) (37 °C) = -2.69 ± 0.62
AGAGAGCAAUAUUACGCUUC in the list: self-splicing fitness (ln) (30 °C) = -3.91 ± 0.53; self-splicing fitness (ln) (37 °C) = -1.57 ± 0.6

(listing goes on)

| Sequence | self-splicing fitness (ln) (30 °C) | self-splicing fitness (ln) (37 °C) |
| --- | --- | --- |
| CGUGAGCAAUAUUACGCUCC | -1.32 ± 1.4 |  |
| UCCGAGCAAUAUUACGCGGA |  | -2.54 ± 0.76 |
| CUCCAGCAAUAUUACGGCCA |  | -3.41 ± 0.59 |
| CUCAAGCAAUAUUACGAGGG | -4.86 ± 0.51 |  |
| GUCAAGCAAUAUUACGCCCC |  | 1.35 ± 1.1 |
| GUCCAGCAAUAUUACGCCAC |  | -3.26 ± 0.74 |
| CGGAAGCAAUAUUACGGUGG | -0.759 ± 0.099 | -0.586 ± 0.1 |
| GGGAAGCAAUAUUACGGAAU | -3.91 ± 0.59 |  |
| AGGGAGCAAUAUUACGCAGG | -4.51 ± 0.51 | -0.965 ± 0.24 |
| UUGGAGCAAUAUUACGCGGA | -2.79 ± 1.2 |  |
| CAUGAGCAAUAUUACGGAUC | -4.44 ± 0.59 | -2.94 ± 0.33 |
| UAGGAGCAAUAUUACGGGAA | -4.02 ± 0.6 | -3.68 ± 0.73 |
| AACCAGCAAUAUUACGGGGU | -3.73 ± 0.14 | -2.88 ± 0.16 |
| CAUUAGCAAUAUUACGGAUU | -3.12 ± 0.2 | -1.23 ± 0.21 |
| GUGGAGCAAUAUUACGCUCC |  | -1.29 ± 1.2 |
| CGUGAGCAAUAUUACGAGUC | -4.7 ± 1 | -3.08 ± 0.74 |
| AGAUAGCAAUAUUACGAGCG | -0.464 ± 0.12 | -1.08 ± 0.15 |
| UAGGAGCAAUAUUACGAUUC |  | -1 ± 0.51 |
| UGGGAGCAAUAUUACGCGCC | -1.93 ± 1.2 | -1.13 ± 1.2 |
| CCCGAGCAAUAUUACGCUUU | -4.16 ± 0.72 |  |
| GGUGAGCAAUAUUACGAAAG | -2.56 ± 0.64 | -2.95 ± 0.78 |
| AUUUAGCAAUAUUACGAUAG | -2.65 ± 0.76 | -2.42 ± 0.55 |
| GUUAAGCAAUAUUACGAUGG | -5.48 ± 0.71 |  |
